Measurements reported in PubChem BioAssay AID493014 (National Center for Advancing Translational Sciences (NCATS), 2011).
The other results are listed elsewhere or left out. The main result of the screen is listed elsewhere. These columns were measured beside it and carry no call. The list favours compounds with an active or inconclusive main result. Potencies come from curve fits of mixed quality, noted in brackets. Square brackets hold non-standard residues; d marks the D form. Peptide text beside a SMILES is read from it. * marks the point of attachment. Hyp = O=C(O)[CH]1C[CH](O)CN1; Cbz = O=C(OCc1ccccc1)*; OBn = c1ccc(CO*)cc1

Assay: qHTS Assay to Find Inhibitors of Chronic Active B-Cell Receptor Signaling
Settings: ABC-DLBCL IkBa-CBG/CBR reporter, luminescence ratio (green luciferase fused to IkBa over red control in TMD8 lymphoma cells), 4 h
Method in brief: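 Doxycycline induced both beetle luciferases in TMD8 lymphoma cells; IKK-driven degradation limits the IkappaBalpha-fused green signal, while red luminescence normalises for cell number and nonspecific effects. Compounds tested up to 46 uM, 4 hrs.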

[1] = measured here: CBR red luminescence, cell number
[2] = measured here: IkBa-CBG green luminescence

SMILES	AC50 [1]	AC50 [2]
Cc1nc2ccccc2c(=O)n1/N=C/c1ccc2ccccc2c1O	3.98 µM [falling, partial curve]	
COc1ccc(-c2nnc(SCC(=O)NCc3ccccc3)nc2-c2ccc(OC)c(OC)c2)cc1OC	12.6 µM [rising, partial curve, poor fit]	11.2 µM [falling, partial curve]
NC(=O)c1ccc(-n2nnnc2SCC(=O)Nc2ccc(N3CCOCC3)c(Cl)c2)cc1	6.51 µM [falling, single point]	
COc1ccc(C(=O)CCN2CCCCCC2)cc1	35.5 µM [falling, single point]	
COc1cc(CNC2CCCC2)cc(Cl)c1OCc1ccccc1Cl	22.4 µM [falling, single point]	
CCOC(=O)N1CCC(N2C(=O)c3ccccc3C2Nc2ccc3c(C)cc(=O)oc3c2)CC1 (stereo unspecified)	7.31 µM [rising, partial curve, poor fit]	
Cn1cc(Cl)c(C(=O)NNC(=S)NC2CCCCC2)n1	18.4 µM [falling, partial curve]	
O=C(N/N=C/c1cccc(OC(=O)c2ccccc2Cl)c1)c1cccnc1	8.91 µM [falling, partial curve, poor fit]	
CN(C)N1C(N)=C(C#N)C(c2ccc(F)cc2)C2=C1CC(C)(C)CC2=O (stereo unspecified)	35.5 µM [falling, single point]	
O=C(O)c1ccc(Cl)c(S(=O)(=O)N(Cc2ccccc2)c2ccc(F)cc2)c1	35.5 µM [falling, single point]	
CCn1c(COc2ccccc2)nnc1SCC(=O)C(C)(C)C	35.5 µM [falling, partial curve, poor fit]	
CCOc1cc(C2C(C#N)=C(N)OC(C)=C2C(C)=O)c(Br)c(Br)c1OC(C)C (stereo unspecified)	6.51 µM [rising, single point]	4.61 µM [falling, full curve]
Cc1cc(C)c(OCC(=O)NCC2COc3ccccc3O2)c(C)c1 (stereo unspecified)	23.1 µM [rising, single point]	
O=C(CCn1c(=O)[nH]c2ccccc2c1=O)NCCSCc1ccccc1	0.631 µM [rising, full curve, poor fit]	
CCC(C(=O)OCC(=O)Nc1cccc(S(=O)(=O)NC2=NCCCCC2)c1)c1ccccc1 (stereo unspecified)	35.5 µM [falling, single point]	
COC(=O)CC1C(=O)NCCN1C(=O)Nc1ccc(Cl)cc1 (stereo unspecified)	35.5 µM [rising, single point]	
O=C(NCC(=O)N1CC(O)CC1C(=O)N1CCCC1C(=O)OCc1ccccc1)OCc1ccccc1 (stereo not drawn) (Cbz-Gly-[Hyp]-Pro-OBn; configuration not given here)		17.8 µM [rising, partial curve, poor fit]
Cc1ccccc1C(=O)c1c[nH]c(C(=O)N2CCN(c3ccccc3F)CC2)c1	35.5 µM [falling, single point]	
O=C(Cn1nc(-c2ccccc2Cl)ccc1=O)Nc1ccc(Br)cc1	12.6 µM [falling, single point]	
Cc1ccc2cccnc2c1NC(=S)NC(=O)c1ccccc1	9.2 µM [falling, partial curve]	
O=C(N/N=C/c1ccc(OCC(=O)N2CCOCC2)cc1)c1ccccc1Cl	22.4 µM [falling, partial curve, poor fit]	

SMILES	AC50 [1]	AC50 [2]
CC1CCCCC1NC(=O)c1ccc2c(c1)OCCO2 (stereo unspecified)	18.4 µM [falling, single point]	
CCn1cc(/C=N\NC(=O)c2csc3ccccc23)c(C)n1	2.59 µM [falling, full curve, poor fit]	
Cc1ccc(N2C(=O)c3ccccc3NC2C(C)Cc2ccc3c(c2)OCO3)cc1 (stereo unspecified)	29.1 µM [falling, single point]	
Cc1cc(C(=O)NC(=S)Nc2cccc(C(=O)O)c2C)ccc1[N+](=O)[O-]	17.8 µM [falling, single point]	
Cc1c(N=C2SCC(=O)N2/N=C/c2ccccc2)c(=O)n(-c2ccccc2)n1C	16.4 µM [falling, partial curve]	
CC1CCCC(C)N1CC(O)COc1c(F)cc(Br)cc1F (stereo unspecified)	25.1 µM [falling, partial curve, poor fit]	
O=C(CSc1nnc(-c2cccnc2)o1)Nc1ccccc1Br	0.631 µM [falling, partial curve, poor fit]	
O=C(/C=C/Nc1ccc(F)c(Cl)c1)c1ccccc1	5.01 µM [falling, partial curve]	
C=CCn1c(SCC(=O)OCC)nc2cc(C(=O)NCc3ccco3)ccc2c1=O	0.206 µM [falling, partial curve, poor fit]	0.82 µM [rising, full curve, poor fit]
NC(=S)N=Nc1c(O)n(Cc2ccc(F)cc2)c2ccccc12	2.59 µM [rising, full curve]	8.2 µM [falling, partial curve]
CC(=O)c1cnc2c(-c3ccc(Cl)cc3)cnn2c1C	9.2 µM [rising, partial curve, poor fit]	
CSc1ccccc1NC(=O)CNCCCN1CCOCC1	0.794 µM [rising, full curve, poor fit]	
CC1(C)CC(=O)C(C(C2=C(O)CC(C)(C)CC2=O)c2ccc(O)c([N+](=O)[O-])c2)=C(O)C1	2.82 µM [falling, single point]	
Cc1ccccc1NC(=O)Cn1c(=O)n(-c2ccc(CC(=O)NCC3CCCO3)cc2)c(=O)c2ccccc21 (stereo unspecified)	6.31 µM [rising, single point]	
COc1cc(OC)cc(C(=O)N[C@H](C(=O)OCC(=O)Nc2ccc(F)c(F)c2)C(C)C)c1	3.66 µM [rising, single point]	
Cn1c(=O)n(CCCOc2ccc(Cl)cc2)c2ccccc21	2.59 µM [rising, full curve]	
Cc1cc(Oc2cc(N)cc([N+](=O)[O-])c2)ccc1Cl	18.4 µM [rising, single point]	
CC(C)(C)NC(=O)CN(Cc1cccnc1)C(=O)c1csnn1	35.5 µM [falling, single point]	
Cc1ccc(S(=O)(=O)Nc2ccc(NC(=O)c3c(F)c(F)c(F)c(F)c3F)cc2)cc1	35.5 µM [falling, single point]	
O=C1CC(c2ccccc2)C(=O)N1c1cccc(O)c1 (stereo unspecified)	3.26 µM [rising, single point]	
CN(C)c1nccc(N(Cc2ccccc2)Cc2ccccc2)c1C#N	35.5 µM [falling, single point]	

SMILES	AC50 [1]	AC50 [2]
Oc1c(N=NC(=S)Nc2ccccc2F)c2ccccc2n1Cc1ccccc1Cl	2.51 µM [falling, full curve, poor fit]	
Cc1cccc(N2CCN(C(=O)C3CCN(S(=O)(=O)c4cccc5nsnc45)CC3)CC2C)c1 (stereo unspecified)	29.1 µM [falling, single point]	
CCCCN(CC)CCNC(=O)c1cc2c(=O)n(C)c3ccccc3c2s1	12.6 µM [falling, partial curve]	
COc1ccc(-c2nn(-c3ccccc3)cc2C=O)cc1[N+](=O)[O-]	2.82 µM [rising, partial curve, poor fit]	
COC(=O)c1ccc(CSc2nnc(-c3ccncc3)o2)cc1	35.5 µM [rising, single point]	
COc1ccc(COc2ccc3ccc(=O)oc3c2)cc1	4.47 µM [rising, full curve, poor fit]	
Cc1cc2occ(CC(=O)OCC(=O)Nc3sc4c(c3C#N)CCC(C)C4)c2cc1C (stereo unspecified)	18.4 µM [rising, single point]	
Cc1[nH]c(=O)[nH]c(=O)c1S(=O)(=O)NCCc1ccc(S(N)(=O)=O)cc1	0.184 µM [rising, partial curve, poor fit]	
N#CCC(=O)N/N=C/c1cn(Cc2cccc3ccccc23)c2ccccc12	3.55 µM [falling, partial curve, poor fit]	
CCCOC(=O)Cn1c(=O)c2cc3c(=O)n(CC(=O)OCCC)c(=O)c3cc2c1=O	13 µM [rising, partial curve]	
Cc1ccc2c(c1)cc(C)c1nnc(SCC(=O)NCc3ccco3)n12	2.82 µM [falling, full curve, poor fit]	
COc1ccccc1CNC(=O)COc1ccc(C)cc1	4.47 µM [rising, full curve]	
CCOC(=O)c1ccc(N2CN(CCc3ccccc3)CNC2=S)cc1	14.6 µM [falling, single point]	
NS(=O)(=O)c1cccnc1Nc1cccc(Cl)c1	18.4 µM [rising, partial curve]	
CC1=CCC(/C=N\Nc2nnc3c(n2)[nH]c2ccccc23)CC1 (stereo unspecified)	14.6 µM [falling, single point]	
CCOc1ccc(-c2cc(N3C(=O)Nc4ccccc4N3O)n[nH]2)cc1	35.5 µM [rising, partial curve, poor fit]	22.4 µM [falling, single point]
COc1ccc(C(C)=O)c(Oc2ccc(S(=O)(=O)N3CCOCC3)cn2)c1	29.1 µM [rising, single point]	
Cc1cccc(NC(=O)CN2CCC(NC(=O)C3CCCCC3)CC2)c1C	23.1 µM [falling, partial curve, poor fit]	
CCCCCCC(=O)N1CCC(c2nc3c(nnn3Cc3ccccc3Cl)c(=O)[nH]2)CC1	29.1 µM [falling, single point]	

In a second layout: three of the compounds above
SMILES,AC50 [1],AC50 [2]
CCOC(=O)c1ccc(N2CN(CCc3ccccc3)CNC2=S)cc1,"14.6 µM [falling, single point]",
NS(=O)(=O)c1cccnc1Nc1cccc(Cl)c1,"18.4 µM [rising, partial curve]",
CC1=CCC(/C=N\Nc2nnc3c(n2)[nH]c2ccccc23)CC1 (stereo unspecified),"14.6 µM [falling, single point]",
